Measured values from patent US9044465B2, “Use of analgesic potentiating compounds to potentiate the analgesic properties of an analgesic compound” (priority 2008, dated 2015).
At least one structure is not confirmed: it was looked up by name or label, or the drawing left a doubt.

How the values were obtained:
Type in all cases: in vivo, human
[1] = system: patients with acute sore throat and pharyngitis; test: Throat Function Index (TFI: swallowing and talking), same study; settings: single oral dose, vs placebo
From the text: (§1) A total of 99 patients who met pre-specified inclusion and exclusion criteria, including moderate to severe throat pain intensity, as measured by a score≧7 on the Throat Soreness Scale (TSS), were admitted to the study.
(§2) There were 9 patients randomly assigned to each treatment group.
**Difficulty Swallowing and Difficulty Talking comprise the 20-point Throat Function Index.

[2] = system: patients with acute sore throat and pharyngitis; test: Difficulty Talking Scale (DTS), same study; settings: single oral dose, vs placebo
From the text: as §1, §2
(§3) The Throat Soreness Scale (TSS), Swollen Throat Scale (SwoTS), Difficulty Swallowing Scale (DSS), Difficulty Talking Scale (DTS), and other Quality-of-Pain Scales were completed at Baseline (immediately pre-treatment). Each of these measurement instruments is a 0-10 ordinal scale (see TEST PROTOCOL below).
(§4) After administration of the assigned study medication, patients completed (1) the Throat Soreness Scale, (2) the Swollen Throat Scale, (3) the Difficulty Swallowing Scale, and (4) the Improvement Assessment (IA) every 15 minutes up to 2 hours. Measurements on the Difficulty Talking Scale and the Quality-of-Pain Scales were obtained after these four assessments at 60 minutes and at 2 hours after treatment.
(§5) After these 2nd hour assessments, patients were discharged from the clinic with a Diary for entering responses on the Throat Soreness Scale, Swollen Throat Scale, Difficulty Swallowing Scale, Difficulty Talking Scale, and Improvement Assessment at 3, 4, 5, and 6 hours. After the 6 hour assessments, patients completed the Quality-of-Pain Scales. […]

[3] = system: patients with acute sore throat and pharyngitis; test: Quality of Pain Index (QPI, 12 qualities of throat pain), same study; settings: single oral dose, vs placebo
From the text: as §1, §2, §4
After these 2nd hour assessments, patients were discharged from the clinic with a Diary for entering responses on the Throat Soreness Scale, Swollen Throat Scale, Difficulty Swallowing Scale, Difficulty Talking Scale, and Improvement Assessment at 3, 4, 5, and 6 hours. After the 6 hour assessments, patients completed the Quality-of-Pain Scales.
The patient will be instructed to swallow and instructed: […]

[4] = system: patients with acute sore throat and pharyngitis; test: Difficulty Swallowing Scale (DSS), same study; settings: single oral dose, vs placebo
From the text: as §1, §2, §3, §4, §5

[5] = system: patients with acute sore throat and pharyngitis; test: Throat Soreness Scale (TSS), randomized double-blind placebo-controlled single-dose study; settings: single oral dose, 9 patients per group, vs placebo
Procedure: as §1, §2
They were discharged home for hourly assessments up to 6 hours post-dose. Patients were allowed alternative analgesic medication at any time during the study.
as §3, with “below). […]” for “below).”
The primary endpoint variable is the Summed Difference in Throat Soreness at 6 hours, which is based on the Throat Soreness Scale. […] At each time point post-dose, a difference is calculated between the throat soreness at that time and the patient's baseline throat soreness. The time-weighted Summed Difference in Throat Soreness at each time point is calculated as the sum of the differences from baseline until that time point.

[6] = system: patients with acute sore throat and pharyngitis; test: Swollen Throat Scale (SwoTS), same study; settings: single oral dose, vs placebo
From the text: as §1, §2, §3, §4, §5

Cc1ccc(-c2cc(C(F)(F)F)nn2-c2ccc(S(N)(=O)=O)cc2)cc1 [celecoxib]
reduction in the TFI compared with placebo over 6 hours [1]: significantly greater reduction in the TFI
reduction in difficulty talking (DTS) compared with placebo over 6 hours [2]: significant
reduction in the QPI compared with placebo over 6 hours [3]: significantly differentiated from placebo
reduction in difficulty swallowing (DSS) compared with placebo over 6 hours [4]: greater reduction in difficulty swallowing compared with placebo
reduction in throat soreness (TSS) compared to placebo over 6 hours [5]: significantly greater reduction in throat soreness compared to placebo
reduction in throat swelling (SwoTS) compared with placebo over 6 hours [6]: significantly differentiated from placebo
